Measurements taken from patent US4597901A, “β-indolylalanyl or β-indolylglycinyl vasopressin antagonists” (SmithKline Beckman Corporation, priority 1984, dated 1986).
Not every detail of the peptide structures is certain; ends, links or a residue may be inferred. *1 amine or outer side, *2 acyl side, *3 side chain or, on linkers, in order; H or OH if unused. Where a SMILES comes first, the peptide text is derived from it. Bridges are numbered along the chain shown (N, C = ends). [ ]: non-standard residue; d: D form. The star is where a group is joined. X1 = O=C(CC1(S[*:2])CCCCC1)[*:1]; For = O=C*

Test system: hydropenic rat
Test: Hydropenic rat protocol (urine osmolality, anti-ADH activity)
Conditions: In Vivo (Rat)
[1] = intraperitoneal dose required to lower urine osmolality to 300 m-Osmoles/kg
[2] = intraperitoneal dose required to lower urine osmolality to 500 m-Osmoles/kg

Compound | ED300 [1] [mg/kg] | ED300 (μg/kg) [1] | ED500 (μg/kg) [2] | ED500 [2] [mg/kg]
CC(C)[C@@H]1NC(=O)[C@H](Cc2ccccc2)NC(=O)[C@@H](Cc2c[nH]c3ccccc23)NC(=O)CC2(CCCCC2)SSC[C@@H](C(=O)N2CCC[C@H]2C(=O)N[C@@H](CCCNC(=N)N)C(=O)NCC(N)=O)NC(=O)[C@H](CC(N)=O)NC1=O [D-Trp, [1-(β-mercapto-β,β-cyclopentamethylenepropionic acid)-2-D-tryptophan-4-valine-8-arginine]vasopressin] ([dW]FVNCPRG-NH2; linker N-5 via X1) | 0.0158 | – | – | –
CC(C)[C@@H]1NC(=O)[C@H](Cc2ccccc2)NC(=O)[C@H](Cc2c[nH]c3ccccc23)NC(=O)CC2(CCCCC2)SSC[C@@H](C(=O)N2CCC[C@H]2C(=O)N[C@@H](CCCNC(=N)N)C(=O)NCC(N)=O)NC(=O)[C@H](CC(N)=O)NC1=O [L-Trp] (WFVNCPRG-NH2; linker N-5 via X1) | – | > 5,000 μg/kg | 1,553 μg/kg | –
CC(C)[C@@H]1NC(=O)[C@H](Cc2ccccc2)NC(=O)[C@@H](Cc2cn(C=O)c3ccccc23)NC(=O)CC2(CCCCC2)SSC[C@@H](C(=O)N2CCC[C@H]2C(=O)N[C@@H](CCCNC(=N)N)C(=O)NCC(N)=O)NC(=O)[C@H](CC(N)=O)NC1=O [D-Trp (For), [1-(β-mercapto-β,β-cyclopentamethylenepropionic acid)-2-D-tryptophan-(N-formyl)-4-valine-8-arginine]vasopressin] ([dW](For)FVNCPRG-NH2; linker N-5 via X1) | – | – | – | 0.013
CC(C)[C@@H]1NC(=O)[C@H](Cc2ccccc2)NC(=O)[C@H](Cc2cn(C=O)c3ccccc23)NC(=O)CC2(CCCCC2)SSC[C@@H](C(=O)N2CCC[C@H]2C(=O)N[C@@H](CCCNC(=N)N)C(=O)NCC(N)=O)NC(=O)[C@H](CC(N)=O)NC1=O [L-Trp (For)] (W(For)FVNCPRG-NH2; linker N-5 via X1) | – | > 1,668 μg/kg | 1,668 μg/kg | –
